Data published in patent US10933091B1, “Composition and method for the treatment of type I diabetes” (Vector Vitale IP LLC, priority 2019, dated 2021).

Columns and labels:
[1] = Intraperitoneal administration to intact rats: accumulation of metals in liver and kidney tissues; conditions: day 1 and day 7 after discontinuation, in words
[2] = Levels of divalent metal ions in muscles, kidneys and liver, diet-induced obesity study; conditions: DIO rats (high-fat diet)

Row | Structure (SMILES) | manganese and copper in kidney and liver tissues [1] | Copper level ([2]; kidneys) [μg/ tissue] | Manganese level ([2]; kidneys) [μg/ tissue] | Copper level ([2]; liver) [μg/ tissue] | Manganese level ([2]; liver) [μg/ tissue] | Copper level ([2]; muscles) [μg/ tissue]
1 | CC(=O)[O-].CC(=O)[O-].[Zn+2] [Zn acetate, Zinc acetate, reference compound] | within the same concentrations as in the control group |  |  |  |  | 
2 | N[C@@H](CC(=O)[O-])C(=O)[O-].[Zn+2] [^64Zne, zinc aspartate] | within the same concentrations as in the control group | 4.94 ± 0.82 | 0.64 ± 0.03 | 3.93 ± 0.09 | 1.94 ± 0.12 | 0.72 ± 0.15
